One substance from article PMC6614449 can be followed below.

Chains of the proteins cited; added tags and fusions are not shown. Lines headed by an entry give the natural chain unless they say otherwise; changes in a name come on top.
UniProt Q8TBM8: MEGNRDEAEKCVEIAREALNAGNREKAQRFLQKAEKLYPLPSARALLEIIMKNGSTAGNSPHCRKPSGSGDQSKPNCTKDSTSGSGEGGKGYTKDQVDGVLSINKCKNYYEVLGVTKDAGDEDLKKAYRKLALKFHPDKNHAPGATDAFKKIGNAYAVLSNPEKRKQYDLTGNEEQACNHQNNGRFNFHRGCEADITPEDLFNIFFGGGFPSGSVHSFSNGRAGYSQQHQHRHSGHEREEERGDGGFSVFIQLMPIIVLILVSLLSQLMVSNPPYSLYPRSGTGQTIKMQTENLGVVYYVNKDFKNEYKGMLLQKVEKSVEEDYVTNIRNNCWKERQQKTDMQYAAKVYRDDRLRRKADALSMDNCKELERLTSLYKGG
UniProt Q9NXW2: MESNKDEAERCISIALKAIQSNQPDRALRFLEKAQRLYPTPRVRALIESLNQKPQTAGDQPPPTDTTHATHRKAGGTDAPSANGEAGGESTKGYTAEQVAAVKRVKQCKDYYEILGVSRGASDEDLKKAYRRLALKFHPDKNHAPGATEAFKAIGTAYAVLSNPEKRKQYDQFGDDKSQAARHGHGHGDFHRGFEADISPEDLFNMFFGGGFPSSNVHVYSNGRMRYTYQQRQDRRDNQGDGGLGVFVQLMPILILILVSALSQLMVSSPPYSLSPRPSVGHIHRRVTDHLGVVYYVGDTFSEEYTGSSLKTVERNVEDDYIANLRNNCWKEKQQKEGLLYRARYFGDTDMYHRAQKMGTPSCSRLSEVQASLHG
UniProt P13569: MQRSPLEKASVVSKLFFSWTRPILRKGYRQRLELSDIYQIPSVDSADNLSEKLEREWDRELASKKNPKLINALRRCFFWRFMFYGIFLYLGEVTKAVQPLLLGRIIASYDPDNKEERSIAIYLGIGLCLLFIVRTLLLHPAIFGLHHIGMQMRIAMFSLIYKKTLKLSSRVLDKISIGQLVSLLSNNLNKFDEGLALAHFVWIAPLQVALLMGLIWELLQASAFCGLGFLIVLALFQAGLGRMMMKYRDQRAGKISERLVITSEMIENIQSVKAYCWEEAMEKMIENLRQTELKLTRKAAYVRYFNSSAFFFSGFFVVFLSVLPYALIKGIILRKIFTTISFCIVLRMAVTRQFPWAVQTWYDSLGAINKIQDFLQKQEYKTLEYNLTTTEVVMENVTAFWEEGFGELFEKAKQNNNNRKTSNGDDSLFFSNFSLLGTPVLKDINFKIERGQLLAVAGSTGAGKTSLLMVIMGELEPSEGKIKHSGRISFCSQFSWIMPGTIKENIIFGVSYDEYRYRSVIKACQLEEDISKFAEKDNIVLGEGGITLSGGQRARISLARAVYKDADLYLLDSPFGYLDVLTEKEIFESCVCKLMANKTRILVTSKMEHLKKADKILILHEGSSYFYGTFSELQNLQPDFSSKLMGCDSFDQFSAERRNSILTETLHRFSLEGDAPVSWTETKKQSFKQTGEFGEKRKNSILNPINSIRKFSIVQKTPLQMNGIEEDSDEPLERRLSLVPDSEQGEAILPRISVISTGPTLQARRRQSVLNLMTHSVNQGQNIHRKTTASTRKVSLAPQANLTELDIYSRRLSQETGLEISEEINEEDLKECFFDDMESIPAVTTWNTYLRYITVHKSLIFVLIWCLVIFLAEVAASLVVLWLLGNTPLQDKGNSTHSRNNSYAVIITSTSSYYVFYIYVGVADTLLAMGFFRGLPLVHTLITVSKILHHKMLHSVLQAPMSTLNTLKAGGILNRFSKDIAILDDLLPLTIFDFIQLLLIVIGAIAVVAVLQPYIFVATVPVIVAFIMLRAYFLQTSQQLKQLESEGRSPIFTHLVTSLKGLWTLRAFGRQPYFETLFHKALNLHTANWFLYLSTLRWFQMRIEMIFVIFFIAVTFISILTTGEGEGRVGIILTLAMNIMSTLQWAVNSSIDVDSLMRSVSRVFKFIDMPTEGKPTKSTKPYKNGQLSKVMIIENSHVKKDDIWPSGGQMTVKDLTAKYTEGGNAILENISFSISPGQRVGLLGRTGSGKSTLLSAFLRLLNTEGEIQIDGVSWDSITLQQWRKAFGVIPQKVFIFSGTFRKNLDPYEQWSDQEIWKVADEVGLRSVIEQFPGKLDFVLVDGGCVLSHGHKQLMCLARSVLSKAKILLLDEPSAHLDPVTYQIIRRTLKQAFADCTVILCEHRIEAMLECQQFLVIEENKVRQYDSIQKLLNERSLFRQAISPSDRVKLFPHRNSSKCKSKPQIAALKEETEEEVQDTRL

Experiment [1] has as its target DNAJB14 (on the ProtoArray) (UniProt Q8TBM8). Nature of the experiment: peptide or protein array; ProtoArray protein microarray (Invitrogen / ThermoFisher) probed with purified full length FLAG-CFTR in solution; bound CFTR detected with mouse anti-FLAG monoclonal antibody and Alexa-488 secondary antibody, fluorescence scanner; mean of duplicate; both purified.
Experiment [2] addresses DNAJB12 (on the ProtoArray) (UniProt Q9NXW2). Described as above.

Results are given in words; binding and its absence hold for the method and conditions named. Binding can be weak; no strength is given.

Consider “full length FLAG-CFTR (WT-CFTR) (from UniProt P13569 1-1480)”, for which the binding result in experiment [1] and in experiment [2] was “binds” throughout.
